PubChem BioAssay AID504744, Drosophila RNAi Screening Center – 2011

Aim: 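Uncover factors, including feedback loops, that control dAkt activation in fly cells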 (primary screen)
System: Drosophila Kc167 cells
Reagent: long dsRNA against Drosophila genes, 250 ng dsRNA per well of a 384-well plate
Timing: 3 days of knock-down, then overnight serum-free starvation before stimulation
Conditions: bovine insulin at 387 nM for 10 minutes after 12 h without serum
Read-out: 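Per-well phospho-dAkt level from an in-cell fluorescent antibody stain, divided by a DNA-dye signal; log2 residuals turned into z-scores that take cell number into account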
Hit rule: 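Hit in the insulin screen when the two-replicate mean z-score is more extreme than plus or minus 2.5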
In all, the deposit lists about 23,000 reagents; shown is a random part of those with a known target gene and a result. In the full data, 98 (0.43%) got an active call. 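Only hit calls are given; the phospho-dAkt signals, z-scores and hit direction were not deposited.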 A plus sign joins genes that one reagent is predicted to hit.

target,PubChem SID,Call
cutlet,SID104180076,inactive
CG11151,SID104199179,inactive
Smg6,SID104195821,inactive
beat-VII,SID104193572,inactive
beat-VII,SID104194535,inactive
beat-VII,SID104194536,inactive
beat-VII,SID104202184,inactive
CG14589,SID104184658,inactive
CG11095,SID104199167,inactive
CG15641,SID104199469,inactive
CG3097,SID104198067,inactive
Tbca,SID104195187,inactive
tgy,SID104199837,inactive
Mal-B1,SID104182208,inactive
CG34269,SID104187676,inactive
Jhbp2,SID104192084,inactive
mRpS25,SID104199390,inactive
GCS1,SID104199536,inactive
Taldo,SID104184112,inactive
Culd,SID104190054,inactive
robo1,SID104184504,inactive
Dys + snoRNA:Me18S-A1374,SID104196024,inactive
Trx2,SID104183414,inactive
alphaTub84D,SID104192415,inactive
Dr,SID104196794,inactive
Dr,SID104202093,inactive
Femcoat,SID104197853,inactive
Octalpha2R,SID104193111,inactive
Octalpha2R,SID104195106,inactive
CG31111,SID104194441,inactive
BHD,SID104190809,inactive
BHD,SID104202192,inactive
CG31207,SID104201517,inactive
Hinfp,SID104198276,inactive
prage,SID104197749,inactive
prage,SID104197750,inactive
prage,SID104198282,inactive
prage,SID104198289,inactive
CR31427,SID104202069,inactive
PGAP1,SID104198078,inactive
Rme-8,SID104186846,inactive
Snr1,SID104192161,inactive
Sec31,SID104186923,inactive
CG6763,SID104195902,inactive
FANCI,SID104186208,inactive
Semp1,SID104181666,inactive
gcl,SID104187415,inactive
Rh50,SID104188484,inactive
LTV1,SID104185743,inactive
Ns2,SID104186785,inactive
L,SID104186458,inactive
L,SID104186460,inactive
Not10,SID104193921,inactive
Sptz,SID104195550,inactive
Syx13,SID104189628,inactive
CG32450,SID104191338,inactive
regucalcin,SID104198700,inactive
regucalcin,SID104200158,inactive
Hey,SID104187232,inactive
Mks1,SID104199489,inactive
subdued,SID104194929,inactive
MsR2 + CG13802 (retired record),SID104188128,inactive
MsR2 + CG13802 (retired record),SID104188129,inactive
MsR2 + CG13802 (retired record),SID104201911,inactive
anchor,SID104190653,inactive
RpL7-like + CG34164,SID104182628,inactive
RpL7-like + CG34164,SID104182629,inactive
CG31010,SID104193798,inactive
CG1701,SID104186433,inactive
CG9812,SID104184358,inactive
Eip93F,SID104193319,inactive
Eip93F,SID104196453,inactive
Eip93F,SID104201423,inactive
aust,SID104182350,inactive
Idi,SID104195710,inactive
Or24a,SID104180560,inactive
Rae1,SID104184369,inactive
CG42249,SID104199175,inactive
CG42249,SID104199618,inactive
CG16782,SID104197910,inactive
CG10694,SID104194055,inactive
CG10171,SID104189503,inactive
CG15534,SID104194862,inactive
CG14017,SID104182140,inactive
Cdc7,SID104198220,inactive
Cdc7,SID104198221,inactive
Cdc7,SID104201686,inactive
CG14285,SID104194558,inactive
LUBEL,SID104181933,inactive
polo,SID104191176,inactive
polo,SID104201850,inactive
VhaM9.7-a,SID104188081,inactive
CG8773,SID104196236,inactive
CG32182,SID104189300,inactive
Gr57a,SID104186193,inactive
MFS16,SID104183843,inactive
CG30270,SID104202249,inactive
CG13300,SID104189766,inactive
CG2701,SID104198382,inactive
swi2,SID104186249,inactive
ATPsynC,SID104195028,inactive
sphe,SID104199995,inactive
Rap1,SID104188478,inactive
CG32801,SID104197756,inactive
CG7786,SID104186837,inactive
CG44422,SID104198677,inactive
CG44422,SID104199172,inactive
CG44422,SID104199272,inactive

15 neighbouring reagents from above, quoted:
target,PubChem SID,Call
BHD,SID104190809,inactive
BHD,SID104202192,inactive
CG31207,SID104201517,inactive
Hinfp,SID104198276,inactive
prage,SID104197749,inactive
prage,SID104197750,inactive
prage,SID104198282,inactive
prage,SID104198289,inactive
CR31427,SID104202069,inactive
PGAP1,SID104198078,inactive
Rme-8,SID104186846,inactive
Snr1,SID104192161,inactive
Sec31,SID104186923,inactive
CG6763,SID104195902,inactive
FANCI,SID104186208,inactive
